In the supplement of paper PMC7824004:
The other results are listed elsewhere or left out. The data scatter; read single values as rough.

Tested on: Candida albicans SN425
Test: biofilm OD600 B-score; higher = more biofilm (less inhibition)
Details: 10 µM; assay detail: High-throughput adherence inhibition optical density biofilm assay with C. albicans SN425 in RPMI-1640/MOPS pH 7.0, 384-well plates. …
Protocol: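 High-throughput adherence inhibition optical density biofilm assay with C. albicans SN425 in RPMI-1640/MOPS pH 7.0, 384-well plates. Compound (10 µM) was present only during the 90 min adherence step, then washed out, and the biofilm grew 24 h without compound. Biofilm was read as OD600 after removing the media. Scores are the difference from the mean in standard deviations and the plate B-score.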

Compound	biofilm OD600 B-score
CCc1ccc(OCC(O)CNC(C)C)cc1 (stereo not given)	-2.21
CC(C)c1ccc(C(=O)Nc2ccccc2C(N)=O)cc1	1.59
NC(=O)c1ccccc1NC(=O)CC1CCCCC1	0.167
O=S(=O)(Cc1ccccc1)N1CCN(C/C=C/c2ccccc2)CC1	1.03
CC(=O)Nc1cccc(NC(=O)CSc2ccccc2)c1	-0.403
COc1ccccc1OCC(=O)Nc1ccc(F)c(Cl)c1	1.22
O=C(Nc1ccc2snnc2c1)N1CCN(c2ccccc2)CC1	-2.01
Cc1cc(OCCN2CCN(C)CC2)ccc1C(C)C	0.519
O=C(Cc1ccc(F)cc1)NCc1ccccn1	-3
CN(C(=O)CSc1nnn(C)n1)c1ccccc1	-0.795
Clc1ccc(OCCN2CCOCC2)cc1	-0.921
OC1CCN(CC2CC=CCC2)CC1 (stereo not given)	0.352
CC(=O)Nc1cccc(OCC(=O)Nc2ccc(C)cc2)c1	1.76
CC(=O)c1c(C)nn2c3ccccc3n(CCN3CCCCC3)c12	1.48
c1ccc(N2CCN(c3cc(-n4cccn4)ncn3)CC2)cc1	0.272
CC(=O)Nc1cccc(NC(=O)Nc2cccc(Cl)c2)c1	1.98
CCc1ccc(CN(C)CCN(C)C)cc1	1.16
O=C(CSC1=NCCS1)NCc1ccco1	-2.19
O=C(O)c1ccccc1-c1ccccc1C(=O)Nc1ccccc1	0.246
Cc1ccnc(NS(=O)(=O)c2ccc(NC(=O)C3CCCO3)cc2)n1 (stereo not given)	0.335

Reprinted at random: 2 entries already listed, in no set order.
Compound	biofilm OD600 B-score
c1ccc(N2CCN(c3cc(-n4cccn4)ncn3)CC2)cc1	0.272
O=C(CSC1=NCCS1)NCc1ccco1	-2.19

The list continues.

Compound	biofilm OD600 B-score
COc1ccc(C(N)=O)cc1NC(C)=O	-1.53
CCCN1C(=O)c2ccc(C(=O)O)cc2C1=O	1.41
O=S(=O)(Nc1ccc(F)cc1Br)c1ccccc1	1.11
CC(C)NC(=O)c1ccccc1NC(=O)c1ccccc1	-1.76
Cn1c(NC(=O)c2cccc(F)c2)cc(=O)n(C)c1=O	1.75
CC(=O)Nc1ccccc1NC(=O)COc1ccc(C)c(C)c1	-0.993
COc1ccc(CNC(=O)CCc2ccccc2)cc1OC	-3.86
O=C(Nc1cccnc1)c1cccc(NC(=O)c2ccco2)c1	-1.87
Cc1cc(C)c(OCC(O)CN2CCOCC2)c(C)c1 (stereo not given)	2.33
COc1cc(OC)cc(C(=O)Nc2ccc(C(=O)NCC3CCCO3)cc2)c1 (stereo not given)	1.91
N#Cc1sc2nc(-c3ccccc3)ccc2c1N	-0.17
C=CCN(CC=C)C(=O)Nc1ccccc1	2.25
C=CCOc1ccccc1CN1CCN(c2ccccn2)CC1	-3.81
CC1CCC(NCC(C)(C)CN(C)C)C1 (stereo not given)	-0.0153
Cc1ccc(S(=O)(=O)Nc2nc(C)c(C)s2)cc1	0.392
N#CC1=C(SCC(=O)Nc2ccccc2)NC(=O)CC1c1ccco1 (stereo not given)	0.00328
CC(O)CNc1ncnc2sc3c(c12)CCC3 (stereo not given)	2.75
COc1ccccc1CC(=O)NCc1ccccc1Cl	-1.53
O=C(CCc1ccccc1)Nc1nn[nH]n1	-1.16
CN(C)CCCOc1cccc(Cl)c1	0.0207
